According to article PMC7592398:
These are yes or no findings as the source states them, for the method shown. Binding seen in cells or lysates may run through a third protein. Some binding calls cover weakened binding; strength is not graded here. Sequences can lack the tags named with a protein.

What was measured:
[1] = molecular target: T1, FLAG-tagged wild-type MKS1 (human) (UniProt Q9NXB0); assay: co-IP; transfected HEK293T cells; lysis in 20 mM Tris-HCl pH 7.5, 150 mM NaCl, 0.5 mM EDTA, 0.5% Triton X-100; FLAG-MKS1 variants captured on FLAG M2 beads 2 h at 4°C, eluted with 3xFLAG peptide; blot with anti-FLAG and anti-HA
T1 sequence: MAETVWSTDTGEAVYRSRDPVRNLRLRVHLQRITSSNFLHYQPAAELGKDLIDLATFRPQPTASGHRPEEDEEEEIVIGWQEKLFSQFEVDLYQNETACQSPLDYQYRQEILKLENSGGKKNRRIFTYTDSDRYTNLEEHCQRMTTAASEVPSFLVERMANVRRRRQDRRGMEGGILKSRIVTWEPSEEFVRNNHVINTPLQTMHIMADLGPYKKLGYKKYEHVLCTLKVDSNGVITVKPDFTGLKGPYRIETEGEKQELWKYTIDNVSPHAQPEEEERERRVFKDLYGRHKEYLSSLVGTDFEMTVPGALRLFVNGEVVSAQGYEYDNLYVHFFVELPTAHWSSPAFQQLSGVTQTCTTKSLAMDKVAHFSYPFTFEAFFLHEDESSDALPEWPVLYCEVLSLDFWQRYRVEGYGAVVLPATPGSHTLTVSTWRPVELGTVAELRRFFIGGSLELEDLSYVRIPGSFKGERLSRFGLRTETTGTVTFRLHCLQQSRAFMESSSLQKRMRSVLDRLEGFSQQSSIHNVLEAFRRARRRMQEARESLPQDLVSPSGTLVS

[2] = molecular target: T2, FLAG-tagged MKS1 1-353 (human) (UniProt Q9NXB0); assay: as above
T2 sequence: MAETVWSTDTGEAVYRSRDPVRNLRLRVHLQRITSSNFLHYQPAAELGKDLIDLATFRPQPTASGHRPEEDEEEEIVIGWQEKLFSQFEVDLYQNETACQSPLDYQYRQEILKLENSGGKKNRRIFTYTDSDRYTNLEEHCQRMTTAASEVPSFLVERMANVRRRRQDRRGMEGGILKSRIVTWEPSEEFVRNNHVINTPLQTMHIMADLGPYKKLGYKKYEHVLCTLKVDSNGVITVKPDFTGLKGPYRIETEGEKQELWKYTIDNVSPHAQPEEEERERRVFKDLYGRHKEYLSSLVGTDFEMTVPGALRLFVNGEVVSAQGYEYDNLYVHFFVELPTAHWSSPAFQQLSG

B1: HA-tagged B9D2 (protein, UniProt Q9BPU9 1-175)
chain: MAEVHVIGQIIGASGFSESSLFCKWGIHTGAAWKLLSGVREGQTQVDTPQIGDMAYWSHPIDLHFATKGLQGWPRLHFQVWSQDSFGRCQLAGYGFCHVPSSPGTHQLACPTWRPLGSWREQLARAFVGGGPQLLHGDTIYSGADRYRLHTAAGGTVHLEIGLLLRNFDRYGVEC
- binding [1]: binds
- binding [2]: no binding
